These are yes or no findings as the source states them, for the method shown. In cells and extracts the contact can be indirect. A yes stands for co-enrichment or nearness to the bait. Other partners may have been found.
Biological target: Rad6-HA (S. cerevisiae) (UniProt P06104)
Assay: affinity purification with mass spectrometry

Protein sequences, listed by entry. Tags and fused reporters are not part of them.
UniProt P06104: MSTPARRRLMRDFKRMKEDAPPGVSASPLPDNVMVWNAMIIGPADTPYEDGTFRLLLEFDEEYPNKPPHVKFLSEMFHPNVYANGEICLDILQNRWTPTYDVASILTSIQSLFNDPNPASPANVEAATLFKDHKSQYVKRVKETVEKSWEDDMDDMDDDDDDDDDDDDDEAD
UniProt P22515: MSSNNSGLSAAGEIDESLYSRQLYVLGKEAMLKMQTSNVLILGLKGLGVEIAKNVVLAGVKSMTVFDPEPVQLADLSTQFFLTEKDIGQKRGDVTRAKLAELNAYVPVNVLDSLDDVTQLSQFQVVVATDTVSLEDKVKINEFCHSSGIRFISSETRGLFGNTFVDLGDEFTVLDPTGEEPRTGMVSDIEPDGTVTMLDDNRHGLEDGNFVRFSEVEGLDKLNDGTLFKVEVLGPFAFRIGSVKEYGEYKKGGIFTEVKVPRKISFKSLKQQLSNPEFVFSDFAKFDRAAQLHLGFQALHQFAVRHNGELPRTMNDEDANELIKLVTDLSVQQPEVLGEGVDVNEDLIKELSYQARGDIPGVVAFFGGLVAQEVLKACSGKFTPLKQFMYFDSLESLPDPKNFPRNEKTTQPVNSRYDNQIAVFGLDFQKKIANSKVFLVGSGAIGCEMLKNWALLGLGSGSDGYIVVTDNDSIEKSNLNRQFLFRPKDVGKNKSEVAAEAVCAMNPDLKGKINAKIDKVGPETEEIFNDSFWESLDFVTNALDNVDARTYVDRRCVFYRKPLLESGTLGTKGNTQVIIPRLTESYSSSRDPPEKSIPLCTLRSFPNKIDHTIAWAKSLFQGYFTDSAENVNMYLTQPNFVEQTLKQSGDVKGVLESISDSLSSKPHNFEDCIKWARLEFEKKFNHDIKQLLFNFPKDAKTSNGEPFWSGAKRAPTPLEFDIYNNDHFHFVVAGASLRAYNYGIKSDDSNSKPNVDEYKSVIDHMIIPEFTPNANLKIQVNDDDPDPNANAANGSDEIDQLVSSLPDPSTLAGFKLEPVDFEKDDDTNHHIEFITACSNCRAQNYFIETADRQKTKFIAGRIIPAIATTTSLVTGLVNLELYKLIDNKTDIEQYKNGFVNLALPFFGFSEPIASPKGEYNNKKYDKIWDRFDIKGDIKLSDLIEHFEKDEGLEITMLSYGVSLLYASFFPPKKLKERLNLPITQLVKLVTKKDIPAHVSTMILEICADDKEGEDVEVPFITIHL

binding: binds
Substance: Uba1 (endogenous) (from UniProt P22515 1-1024) (enzyme)

Source: doi:10.1101/2021.04.22.439970
